Experimental data from the supplement of paper PMC10849652.
The other results are listed elsewhere or left out.

Chains of the proteins cited; added tags and fusions are not shown. Lines headed by an entry give the natural chain unless they say otherwise; changes in a name come on top.
UniProt P15336: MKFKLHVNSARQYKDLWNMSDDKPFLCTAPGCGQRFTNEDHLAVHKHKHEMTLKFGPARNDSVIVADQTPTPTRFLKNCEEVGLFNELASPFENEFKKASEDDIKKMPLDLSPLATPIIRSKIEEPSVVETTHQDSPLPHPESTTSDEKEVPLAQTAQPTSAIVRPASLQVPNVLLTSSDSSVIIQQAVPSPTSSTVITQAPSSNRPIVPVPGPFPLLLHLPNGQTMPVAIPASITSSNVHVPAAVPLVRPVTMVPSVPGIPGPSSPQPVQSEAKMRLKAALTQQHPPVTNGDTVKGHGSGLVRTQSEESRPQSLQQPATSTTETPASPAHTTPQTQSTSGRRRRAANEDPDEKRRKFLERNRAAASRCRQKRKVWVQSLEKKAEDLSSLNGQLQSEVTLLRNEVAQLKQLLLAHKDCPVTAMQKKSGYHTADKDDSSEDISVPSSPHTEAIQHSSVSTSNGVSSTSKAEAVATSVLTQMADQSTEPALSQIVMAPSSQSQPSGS
UniProt P25705: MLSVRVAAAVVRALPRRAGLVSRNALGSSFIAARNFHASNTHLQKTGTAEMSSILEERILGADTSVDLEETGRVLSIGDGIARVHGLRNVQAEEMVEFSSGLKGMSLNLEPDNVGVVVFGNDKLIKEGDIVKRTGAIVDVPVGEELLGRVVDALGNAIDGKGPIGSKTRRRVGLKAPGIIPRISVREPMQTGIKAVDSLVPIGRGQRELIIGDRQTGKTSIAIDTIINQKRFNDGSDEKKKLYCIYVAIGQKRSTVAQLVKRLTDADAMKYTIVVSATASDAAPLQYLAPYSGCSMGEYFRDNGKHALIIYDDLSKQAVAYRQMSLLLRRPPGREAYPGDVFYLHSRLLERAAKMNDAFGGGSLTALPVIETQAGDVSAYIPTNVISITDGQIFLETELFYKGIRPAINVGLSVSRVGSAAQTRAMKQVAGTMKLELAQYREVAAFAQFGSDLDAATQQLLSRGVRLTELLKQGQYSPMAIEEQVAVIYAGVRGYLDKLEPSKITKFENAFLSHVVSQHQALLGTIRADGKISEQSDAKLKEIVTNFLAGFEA
UniProt Q9Y4P1: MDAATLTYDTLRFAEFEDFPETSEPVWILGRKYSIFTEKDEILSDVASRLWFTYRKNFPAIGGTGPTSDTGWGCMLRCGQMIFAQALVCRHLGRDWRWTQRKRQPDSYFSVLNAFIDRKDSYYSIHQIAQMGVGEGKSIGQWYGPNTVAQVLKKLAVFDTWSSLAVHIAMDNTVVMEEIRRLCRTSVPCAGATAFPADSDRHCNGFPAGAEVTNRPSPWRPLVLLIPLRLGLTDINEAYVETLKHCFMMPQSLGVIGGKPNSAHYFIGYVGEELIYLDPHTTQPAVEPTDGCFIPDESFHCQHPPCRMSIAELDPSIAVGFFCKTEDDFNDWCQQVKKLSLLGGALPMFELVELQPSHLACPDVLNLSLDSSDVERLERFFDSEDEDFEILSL
UniProt P00966: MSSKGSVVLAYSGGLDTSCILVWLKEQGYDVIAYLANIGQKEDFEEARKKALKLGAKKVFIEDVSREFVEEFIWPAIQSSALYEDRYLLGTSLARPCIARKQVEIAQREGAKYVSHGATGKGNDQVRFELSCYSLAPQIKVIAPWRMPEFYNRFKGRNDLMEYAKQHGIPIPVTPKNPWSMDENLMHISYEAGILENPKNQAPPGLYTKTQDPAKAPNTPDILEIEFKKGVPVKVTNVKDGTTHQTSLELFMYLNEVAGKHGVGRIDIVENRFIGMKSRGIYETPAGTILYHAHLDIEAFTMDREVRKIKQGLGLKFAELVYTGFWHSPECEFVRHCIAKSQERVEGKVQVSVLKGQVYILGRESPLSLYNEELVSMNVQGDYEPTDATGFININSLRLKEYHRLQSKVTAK
UniProt P14415, whole entry, looked up: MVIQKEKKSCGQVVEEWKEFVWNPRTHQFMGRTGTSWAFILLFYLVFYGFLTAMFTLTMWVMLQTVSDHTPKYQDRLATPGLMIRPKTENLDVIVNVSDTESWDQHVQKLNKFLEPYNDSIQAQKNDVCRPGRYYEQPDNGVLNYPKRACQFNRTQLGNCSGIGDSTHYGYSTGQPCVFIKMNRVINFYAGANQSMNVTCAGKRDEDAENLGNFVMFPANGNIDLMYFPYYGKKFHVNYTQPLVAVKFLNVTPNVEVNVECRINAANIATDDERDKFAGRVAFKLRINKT
UniProt Q9H1Y0: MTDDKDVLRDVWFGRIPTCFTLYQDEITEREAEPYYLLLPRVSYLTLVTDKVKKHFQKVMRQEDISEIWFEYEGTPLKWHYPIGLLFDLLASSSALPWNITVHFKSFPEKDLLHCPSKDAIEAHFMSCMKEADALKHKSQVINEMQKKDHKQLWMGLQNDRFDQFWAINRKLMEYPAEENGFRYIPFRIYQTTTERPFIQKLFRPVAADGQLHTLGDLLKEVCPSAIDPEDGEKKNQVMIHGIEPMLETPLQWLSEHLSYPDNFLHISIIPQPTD
UniProt L0R819, whole entry, looked up: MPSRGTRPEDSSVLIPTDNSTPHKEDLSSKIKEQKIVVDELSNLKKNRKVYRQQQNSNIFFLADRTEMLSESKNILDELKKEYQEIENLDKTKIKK
UniProt Q9NXU5: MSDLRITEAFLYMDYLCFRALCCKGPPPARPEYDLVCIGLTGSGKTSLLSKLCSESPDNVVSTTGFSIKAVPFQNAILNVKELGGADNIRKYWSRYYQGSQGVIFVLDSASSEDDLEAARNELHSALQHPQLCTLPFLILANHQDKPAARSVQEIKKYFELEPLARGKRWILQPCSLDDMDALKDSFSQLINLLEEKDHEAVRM
UniProt Q6NXE6: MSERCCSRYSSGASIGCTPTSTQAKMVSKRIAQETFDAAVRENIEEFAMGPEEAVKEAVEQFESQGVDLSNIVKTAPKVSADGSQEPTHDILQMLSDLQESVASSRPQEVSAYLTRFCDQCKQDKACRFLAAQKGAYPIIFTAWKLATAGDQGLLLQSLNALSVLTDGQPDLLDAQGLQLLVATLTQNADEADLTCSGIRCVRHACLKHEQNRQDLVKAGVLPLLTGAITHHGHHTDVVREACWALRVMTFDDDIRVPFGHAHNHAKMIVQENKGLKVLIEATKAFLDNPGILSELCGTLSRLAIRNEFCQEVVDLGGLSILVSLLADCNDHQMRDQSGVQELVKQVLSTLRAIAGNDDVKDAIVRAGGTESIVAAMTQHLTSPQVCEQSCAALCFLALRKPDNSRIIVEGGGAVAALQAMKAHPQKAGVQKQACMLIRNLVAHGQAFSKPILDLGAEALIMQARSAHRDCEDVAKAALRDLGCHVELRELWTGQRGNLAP
UniProt O95352: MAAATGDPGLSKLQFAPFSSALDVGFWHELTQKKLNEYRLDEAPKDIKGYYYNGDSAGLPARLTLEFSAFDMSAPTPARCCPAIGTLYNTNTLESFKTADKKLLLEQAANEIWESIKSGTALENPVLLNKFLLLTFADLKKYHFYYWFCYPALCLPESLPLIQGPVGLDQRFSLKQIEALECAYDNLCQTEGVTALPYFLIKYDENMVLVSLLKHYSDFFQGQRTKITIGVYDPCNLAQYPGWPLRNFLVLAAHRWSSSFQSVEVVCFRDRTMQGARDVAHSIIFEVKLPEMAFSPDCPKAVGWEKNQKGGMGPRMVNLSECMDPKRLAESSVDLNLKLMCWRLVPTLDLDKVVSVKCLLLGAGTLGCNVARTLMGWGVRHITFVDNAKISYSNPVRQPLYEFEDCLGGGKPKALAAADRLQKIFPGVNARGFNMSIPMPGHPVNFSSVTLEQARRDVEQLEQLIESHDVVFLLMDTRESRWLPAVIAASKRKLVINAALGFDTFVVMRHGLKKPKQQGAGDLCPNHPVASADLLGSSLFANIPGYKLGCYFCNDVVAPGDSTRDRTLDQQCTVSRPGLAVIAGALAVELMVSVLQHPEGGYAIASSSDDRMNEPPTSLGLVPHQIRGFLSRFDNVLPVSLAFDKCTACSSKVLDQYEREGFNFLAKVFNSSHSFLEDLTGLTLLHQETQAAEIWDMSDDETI
UniProt P98194: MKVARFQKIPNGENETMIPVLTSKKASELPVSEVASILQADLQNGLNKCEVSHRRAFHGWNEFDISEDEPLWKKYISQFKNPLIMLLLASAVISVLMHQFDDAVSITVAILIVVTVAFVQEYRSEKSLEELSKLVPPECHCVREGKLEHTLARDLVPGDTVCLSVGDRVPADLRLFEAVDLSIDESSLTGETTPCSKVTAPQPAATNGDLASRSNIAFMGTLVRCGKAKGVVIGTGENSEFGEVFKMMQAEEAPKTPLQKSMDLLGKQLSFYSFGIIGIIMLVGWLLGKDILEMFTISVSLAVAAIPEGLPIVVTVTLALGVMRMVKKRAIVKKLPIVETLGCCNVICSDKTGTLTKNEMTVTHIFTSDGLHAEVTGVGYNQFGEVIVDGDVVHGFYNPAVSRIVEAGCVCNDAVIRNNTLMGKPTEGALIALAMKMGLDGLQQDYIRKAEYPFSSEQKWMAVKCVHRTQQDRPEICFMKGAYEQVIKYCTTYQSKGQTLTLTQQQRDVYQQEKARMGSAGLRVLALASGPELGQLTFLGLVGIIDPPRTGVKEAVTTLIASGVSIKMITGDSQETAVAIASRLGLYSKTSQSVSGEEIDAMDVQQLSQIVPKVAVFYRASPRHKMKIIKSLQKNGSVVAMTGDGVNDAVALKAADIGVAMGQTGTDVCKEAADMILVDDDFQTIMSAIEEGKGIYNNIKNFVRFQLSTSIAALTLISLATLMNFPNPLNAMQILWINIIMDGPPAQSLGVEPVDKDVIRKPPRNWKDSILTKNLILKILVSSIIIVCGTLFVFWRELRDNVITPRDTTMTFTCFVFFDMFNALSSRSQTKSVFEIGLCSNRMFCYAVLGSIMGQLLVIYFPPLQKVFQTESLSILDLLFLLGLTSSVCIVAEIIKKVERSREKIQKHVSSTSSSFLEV
UniProt Q9BPX5, whole entry, looked up: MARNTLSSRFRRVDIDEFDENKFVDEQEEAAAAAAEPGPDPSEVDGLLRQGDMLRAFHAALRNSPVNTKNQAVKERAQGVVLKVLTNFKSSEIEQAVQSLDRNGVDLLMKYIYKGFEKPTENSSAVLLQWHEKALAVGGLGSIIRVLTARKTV
UniProt Q66PJ3: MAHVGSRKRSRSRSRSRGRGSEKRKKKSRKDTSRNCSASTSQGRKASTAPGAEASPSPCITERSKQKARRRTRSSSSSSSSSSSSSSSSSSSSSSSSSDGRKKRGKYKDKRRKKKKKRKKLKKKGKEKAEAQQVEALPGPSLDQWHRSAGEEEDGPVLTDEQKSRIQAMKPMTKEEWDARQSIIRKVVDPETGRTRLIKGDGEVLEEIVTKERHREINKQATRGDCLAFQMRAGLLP
UniProt Q8N5M1: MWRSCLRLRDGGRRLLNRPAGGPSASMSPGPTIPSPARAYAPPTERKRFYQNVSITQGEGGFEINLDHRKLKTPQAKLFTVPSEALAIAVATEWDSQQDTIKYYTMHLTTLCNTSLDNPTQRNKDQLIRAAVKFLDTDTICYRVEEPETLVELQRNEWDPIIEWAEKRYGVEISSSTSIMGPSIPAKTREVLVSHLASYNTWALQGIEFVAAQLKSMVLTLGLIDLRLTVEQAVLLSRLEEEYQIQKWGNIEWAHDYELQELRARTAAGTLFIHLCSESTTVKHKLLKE

How the values were obtained:
Assay in all cases: log2 fold change, soluble protein after heating vs DMSO (PISA); higher = thermal stabilisation; K562 cells, 10 uM, 30 min; active = over 0.2 and 3.5 SD of the protein, either way, in both replicates (recomputed)
erlotinib = compound: C#Cc1cccc(Nc2ncnc3cc(OCCOC)c(OCCOC)cc23)c1 [erlotinib]
Method in brief: (§1)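 K562 cells at 2×10^6 cells/mL were exposed to 10 μM compound for 30 min, then aliquots were heated for 3 min across 48°C-58°C, pooled, and extracted in PBS containing 0.5% NP-40 at 4°C. The supernatant after 21,000xg for 90 min was taken as soluble protein and measured by TMTpro 16plex LC-MS/MS with channel sums equalised. Thermal stability is reported relative to control samples, with values from duplicates. Fold changes are given on a log2 scale.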

[1] = compound: C/C(=N\NC(=O)C1=CC(=CC=C1)S(=O)(=O)N2CCOCC2)/C3=C(C=CC(=C3)Cl)O
Method in brief: as §1

[2] = compound: C1=CC(=C(C=C1Cl)C2=NC3=NC=CN=C3C(=N2)NC4=CC=NC=C4)F
Method in brief: as §1

[3] = compound: C1=CC(=CC=C1C2=NC3=C(N2)C=C(C=C3)C(=O)N)OC4=CC=C(C=C4)Cl
Method in brief: as §1

[4] = compound: C1=CC2=C(C=CC(=C2)/C=C\3/C(=O)NC(=NCC4=CC=CS4)S3)N=C1
Method in brief: as §1

[5] = compound: C1=CC2=NC=CN=C2C=C1/C=C/3\C(=O)NC(=O)S3
Method in brief: as §1

[6] = compound: C1=CC=C(C=C1)C2=NC(=C(N2)C3=CC=NC=C3)C4=CC(=C(C=C4)Cl)O
Method in brief: as §1

[7] = compound: C1=CC=C2C(=C1)C3=NNC4=CC=CC(=C43)C2=O
Method in brief: as §1

[8] = compound: C1CCN(C1)C(=O)NC2=CC=CC(=C2)NC3=NC=C(C(=N3)NCCC4=CN=CN4)Br
Method in brief: as §1

[9] = compound: C1CN(CCC1(CC2=CC=C(C=C2)Cl)N)C3=NC=NC4=C3C=CN4
Method in brief: as §1

ATF2 (UniProt P15336)
log2 fold change (erlotinib): inactive: -0.031 | log2 fold change [1]: inactive: -0.194 | log2 fold change [2]: inactive: 0.098 | log2 fold change [3]: inactive: -0.027 | log2 fold change [4]: inactive: 0.055 | log2 fold change [5]: inactive: 0.025 | log2 fold change [6]: inactive: 0.018 | log2 fold change [7]: inactive: -0.005 | log2 fold change [8]: inactive: -0.066 | log2 fold change [9]: inactive: -0.012

ATP5F1A (UniProt P25705)
log2 fold change (erlotinib): inactive: -0.008 | log2 fold change [1]: inactive: -0.044 | log2 fold change [2]: inactive: 0.002 | log2 fold change [3]: inactive: -0.008 | log2 fold change [4]: inactive: -0.026 | log2 fold change [5]: inactive: 0.002 | log2 fold change [6]: inactive: -0.04 | log2 fold change [7]: inactive: 0.035 | log2 fold change [8]: inactive: 0.031 | log2 fold change [9]: inactive: 0.037

ATG4B isoform 2 (UniProt Q9Y4P1)
log2 fold change (erlotinib): inactive: -0.008 | log2 fold change [1]: inactive: 0.078 | log2 fold change [2]: inactive: 0.017 | log2 fold change [3]: inactive: 0.178 | log2 fold change [4]: inactive: 0.118 | log2 fold change [5]: inactive: 0.089 | log2 fold change [6]: inactive: 0.143 | log2 fold change [7]: inactive: -0.046 | log2 fold change [8]: inactive: -0.087 | log2 fold change [9]: inactive: -0.033

ASS1 (UniProt P00966)
log2 fold change (erlotinib): inactive: 0.059 | log2 fold change [1]: active: 0.301 | log2 fold change [2]: inactive: -0.05 | log2 fold change [3]: inactive: 0.008 | log2 fold change [4]: inactive: -0.003 | log2 fold change [5]: inactive: 0.036 | log2 fold change [6]: inactive: 0.012 | log2 fold change [7]: inactive: 0.118 | log2 fold change [8]: inactive: 0.103 | log2 fold change [9]: inactive: -0.037

ATP1B2 (UniProt P14415)
log2 fold change (erlotinib): inactive: -0.048 | log2 fold change [1]: inactive: -0.129 | log2 fold change [2]: inactive: 0.122 | log2 fold change [3]: inactive: 0.096 | log2 fold change [4]: inactive: 0.113 | log2 fold change [5]: inactive: 0.072 | log2 fold change [6]: inactive: 0.07 | log2 fold change [7]: inactive: 0.028 | log2 fold change [8]: inactive: 0.016 | log2 fold change [9]: inactive: 0.014

ATG5 (UniProt Q9H1Y0)
log2 fold change (erlotinib): inactive: -0.005 | log2 fold change [1]: inactive: 0.009 | log2 fold change [2]: inactive: 0.06 | log2 fold change [3]: inactive: 0.047 | log2 fold change [4]: inactive: 0.017 | log2 fold change [5]: inactive: 0.032 | log2 fold change [6]: inactive: 0.1 | log2 fold change [7]: inactive: 0.07 | log2 fold change [8]: inactive: -0.035 | log2 fold change [9]: inactive: 0.027

ASDURF (UniProt L0R819)
log2 fold change (erlotinib): inactive: -0.028 | log2 fold change [1]: inactive: 0.013 | log2 fold change [2]: inactive: -0.08 | log2 fold change [3]: inactive: 0.032 | log2 fold change [4]: inactive: -0.022 | log2 fold change [5]: inactive: 0 | log2 fold change [6]: inactive: -0.103 | log2 fold change [7]: inactive: -0.056 | log2 fold change [8]: inactive: 0.013 | log2 fold change [9]: inactive: 0.014

ARL15 (UniProt Q9NXU5)
log2 fold change (erlotinib): inactive: 0.039 | log2 fold change [1]: inactive: 0.079 | log2 fold change [2]: inactive: 0.08 | log2 fold change [3]: inactive: -0.036 | log2 fold change [4]: inactive: -0.01 | log2 fold change [5]: inactive: 0.005 | log2 fold change [6]: inactive: 0.057 | log2 fold change [7]: inactive: 0.03 | log2 fold change [8]: inactive: -0.14 | log2 fold change [9]: inactive: 0.075

ARMC6 (UniProt Q6NXE6)
log2 fold change (erlotinib): inactive: 0.073 | log2 fold change [1]: inactive: -0.044 | log2 fold change [2]: inactive: -0.359 | log2 fold change [3]: inactive: 0.022 | log2 fold change [4]: inactive: 0 | log2 fold change [5]: inactive: 0.005 | log2 fold change [6]: inactive: -0.028 | log2 fold change [7]: inactive: 0.018 | log2 fold change [8]: inactive: -0.016 | log2 fold change [9]: inactive: -0.201

ATG7 (UniProt O95352)
log2 fold change (erlotinib): inactive: -0.022 | log2 fold change [1]: inactive: 0.09 | log2 fold change [2]: inactive: 0.018 | log2 fold change [3]: inactive: 0.02 | log2 fold change [4]: inactive: -0.004 | log2 fold change [5]: inactive: -0.002 | log2 fold change [6]: inactive: 0.052 | log2 fold change [7]: inactive: 0.054 | log2 fold change [8]: inactive: 0.006 | log2 fold change [9]: inactive: 0.016

ATP2C1 isoform 7 (UniProt P98194)
log2 fold change (erlotinib): inactive: -0.01 | log2 fold change [1]: inactive: 0.042 | log2 fold change [2]: inactive: 0.127 | log2 fold change [3]: inactive: 0.033 | log2 fold change [4]: inactive: 0.015 | log2 fold change [5]: inactive: 0.043 | log2 fold change [6]: inactive: 0 | log2 fold change [7]: inactive: -0.008 | log2 fold change [8]: inactive: 0.049 | log2 fold change [9]: inactive: 0.034

ARPC5L (UniProt Q9BPX5)
log2 fold change (erlotinib): inactive: 0.038 | log2 fold change [1]: inactive: -0.007 | log2 fold change [2]: inactive: -0.02 | log2 fold change [3]: inactive: -0.069 | log2 fold change [4]: inactive: 0 | log2 fold change [5]: inactive: -0.01 | log2 fold change [6]: inactive: 0.004 | log2 fold change [7]: inactive: -0.009 | log2 fold change [8]: inactive: 0.002 | log2 fold change [9]: inactive: -0.036

ARL6IP4 (UniProt Q66PJ3)
log2 fold change (erlotinib): inactive: 0.041 | log2 fold change [1]: inactive: 0.06 | log2 fold change [2]: inactive: -0.085 | log2 fold change [3]: inactive: -0.01 | log2 fold change [4]: inactive: -0.08 | log2 fold change [5]: inactive: 0 | log2 fold change [6]: inactive: -0.12 | log2 fold change [7]: inactive: 0.117 | log2 fold change [8]: inactive: 0.003 | log2 fold change [9]: inactive: 0.039

ARPC2 (UniProt O15144)
log2 fold change (erlotinib): inactive: -0.019 | log2 fold change [1]: inactive: 0.003 | log2 fold change [2]: inactive: 0.056 | log2 fold change [3]: inactive: -0.026 | log2 fold change [4]: inactive: -0.004 | log2 fold change [5]: inactive: 0.021 | log2 fold change [6]: inactive: 0.04 | log2 fold change [7]: inactive: -0.002 | log2 fold change [8]: inactive: -0.003 | log2 fold change [9]: inactive: 0.005

ATPAF2 (UniProt Q8N5M1)
log2 fold change (erlotinib): inactive: 0.026 | log2 fold change [1]: inactive: -0.009 | log2 fold change [2]: inactive: 0.087 | log2 fold change [3]: inactive: -0.08 | log2 fold change [4]: inactive: 0.015 | log2 fold change [5]: inactive: -0.024 | log2 fold change [6]: inactive: -0.066 | log2 fold change [7]: inactive: 0.04 | log2 fold change [8]: inactive: 0.02 | log2 fold change [9]: inactive: -0.017
